Some of the results follow.
Assays:
Test in all cases: log2 fold change, soluble protein after heating vs DMSO (PISA); higher = thermal stabilisation; K562 lysate, 10 uM; active = over 0.2 and 3.5 SD of the protein, either way, in both replicates (recomputed)
[1] = compound: C1=CC=C(C=C1)[C@H](COC2=CC3=C(C=C2)NC(=O)N3)NC(=O)C4=CC=CN(C4=O)CC5=CC(=C(C=C5)F)F
Procedure, shortened: (§1)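 Pellets of K562 cells were dounce-homogenised in PBS pH 7.4 with 1 mM MgCl2, and the crude extract was held at 1 mg/mL protein for a 30 min treatment with 10 μM compound. Aliquots were heated for 3 min over 48°C-58°C and pooled before NP-40 was added to 0.5% at 4°C. The supernatant from 21,000xg for 90 min was quantified by TMTpro 16plex LC-MS/MS with channel sums equalised. Values are reported from duplicates as log-two fold change in thermal stability relative to solvent controls.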

By UniProt entry, the sequences of proteins in these tests, tags left out. Where a name states a change or a piece, a line headed by the entry shows the natural chain unless it says otherwise.
UniProt Q9H633: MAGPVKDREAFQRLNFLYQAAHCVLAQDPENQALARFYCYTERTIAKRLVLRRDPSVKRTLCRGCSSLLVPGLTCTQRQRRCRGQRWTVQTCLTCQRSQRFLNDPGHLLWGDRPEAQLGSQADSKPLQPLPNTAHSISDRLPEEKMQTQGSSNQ
UniProt O43818: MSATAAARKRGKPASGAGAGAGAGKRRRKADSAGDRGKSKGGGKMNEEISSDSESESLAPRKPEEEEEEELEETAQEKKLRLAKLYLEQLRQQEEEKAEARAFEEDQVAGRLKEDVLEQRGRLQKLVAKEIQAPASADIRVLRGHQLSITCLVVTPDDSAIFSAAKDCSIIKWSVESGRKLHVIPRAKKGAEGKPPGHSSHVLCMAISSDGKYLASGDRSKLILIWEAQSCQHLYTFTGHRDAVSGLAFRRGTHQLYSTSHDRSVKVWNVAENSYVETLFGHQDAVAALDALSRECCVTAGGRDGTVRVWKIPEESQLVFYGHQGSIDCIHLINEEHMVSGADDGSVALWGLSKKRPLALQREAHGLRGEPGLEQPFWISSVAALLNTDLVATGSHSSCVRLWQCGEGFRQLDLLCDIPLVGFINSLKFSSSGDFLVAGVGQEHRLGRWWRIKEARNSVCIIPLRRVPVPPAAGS
UniProt Q92766: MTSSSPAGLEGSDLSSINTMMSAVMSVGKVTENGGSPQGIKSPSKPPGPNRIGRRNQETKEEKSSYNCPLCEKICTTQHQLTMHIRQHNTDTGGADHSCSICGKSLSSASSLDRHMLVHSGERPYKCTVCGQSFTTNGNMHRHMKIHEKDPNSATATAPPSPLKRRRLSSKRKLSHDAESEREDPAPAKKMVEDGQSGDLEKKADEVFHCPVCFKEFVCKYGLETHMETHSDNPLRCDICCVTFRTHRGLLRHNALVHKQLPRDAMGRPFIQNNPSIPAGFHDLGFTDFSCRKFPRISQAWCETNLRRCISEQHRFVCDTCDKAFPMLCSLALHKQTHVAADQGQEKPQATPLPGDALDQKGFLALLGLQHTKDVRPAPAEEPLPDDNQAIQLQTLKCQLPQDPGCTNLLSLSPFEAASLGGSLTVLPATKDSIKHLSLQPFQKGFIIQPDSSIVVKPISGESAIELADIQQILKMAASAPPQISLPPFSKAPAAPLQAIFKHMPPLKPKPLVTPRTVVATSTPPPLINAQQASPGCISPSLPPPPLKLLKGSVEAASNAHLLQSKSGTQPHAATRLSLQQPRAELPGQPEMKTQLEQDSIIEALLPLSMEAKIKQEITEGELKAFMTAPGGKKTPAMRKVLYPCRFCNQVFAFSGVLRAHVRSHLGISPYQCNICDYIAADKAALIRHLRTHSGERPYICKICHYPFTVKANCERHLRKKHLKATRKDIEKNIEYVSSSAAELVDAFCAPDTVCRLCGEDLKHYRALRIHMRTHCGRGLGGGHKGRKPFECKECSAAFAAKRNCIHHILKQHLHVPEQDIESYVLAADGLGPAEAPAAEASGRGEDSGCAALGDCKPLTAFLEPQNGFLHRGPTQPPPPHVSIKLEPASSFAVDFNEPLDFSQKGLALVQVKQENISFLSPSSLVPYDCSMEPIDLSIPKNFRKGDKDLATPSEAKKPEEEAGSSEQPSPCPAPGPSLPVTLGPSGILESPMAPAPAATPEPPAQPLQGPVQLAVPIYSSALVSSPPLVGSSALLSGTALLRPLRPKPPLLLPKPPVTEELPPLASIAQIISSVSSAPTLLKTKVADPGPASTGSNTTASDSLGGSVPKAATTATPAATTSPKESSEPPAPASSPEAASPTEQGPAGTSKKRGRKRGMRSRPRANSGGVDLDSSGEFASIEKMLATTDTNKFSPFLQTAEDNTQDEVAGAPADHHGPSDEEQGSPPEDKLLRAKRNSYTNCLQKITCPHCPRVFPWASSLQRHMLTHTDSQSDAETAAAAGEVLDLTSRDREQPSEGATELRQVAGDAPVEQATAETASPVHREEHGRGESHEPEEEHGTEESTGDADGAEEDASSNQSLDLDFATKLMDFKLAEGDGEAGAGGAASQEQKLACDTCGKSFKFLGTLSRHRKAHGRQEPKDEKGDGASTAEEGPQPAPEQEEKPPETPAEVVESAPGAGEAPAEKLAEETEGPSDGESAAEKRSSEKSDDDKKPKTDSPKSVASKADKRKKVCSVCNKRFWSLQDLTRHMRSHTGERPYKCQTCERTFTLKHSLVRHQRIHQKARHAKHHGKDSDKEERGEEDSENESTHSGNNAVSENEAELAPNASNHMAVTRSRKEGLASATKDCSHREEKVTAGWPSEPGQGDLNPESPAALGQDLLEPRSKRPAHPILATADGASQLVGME
UniProt Q8WWV3: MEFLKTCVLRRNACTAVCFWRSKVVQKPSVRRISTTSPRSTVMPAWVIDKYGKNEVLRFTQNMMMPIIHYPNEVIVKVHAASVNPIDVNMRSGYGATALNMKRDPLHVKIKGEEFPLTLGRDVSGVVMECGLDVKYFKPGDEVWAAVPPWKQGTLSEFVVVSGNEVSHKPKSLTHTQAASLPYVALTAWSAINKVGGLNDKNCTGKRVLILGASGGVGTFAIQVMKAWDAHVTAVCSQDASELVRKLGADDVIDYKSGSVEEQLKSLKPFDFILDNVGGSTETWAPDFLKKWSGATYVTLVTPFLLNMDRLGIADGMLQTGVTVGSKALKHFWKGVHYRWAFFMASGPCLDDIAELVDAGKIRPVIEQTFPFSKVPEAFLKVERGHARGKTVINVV

[2] = compound: CC1=C(SC2=C1C(=N[C@H](C3=NN=C(N32)C)CC(=O)N)C4=CC=C(C=C4)Cl)C
Procedure, shortened: as §1

[3] = compound: CC1=C2C(=CC=C1)N=C(N(C2=O)C3=CC=CC=C3C)CN4C=NC5=C(N=CN=C54)N
Procedure, shortened: as §1

[4] = compound: Cc1sc2c(c1C)C(c1ccc(Cl)cc1)=N[C@@H](CC(=O)OC(C)(C)C)c1nnc(C)n1-2
Procedure, shortened: as §1

[5] = compound: c1ccc([C@@H]2C[C@H]2NC2CCNCC2)cc1
Procedure, shortened: as §1

Measured: log2 fold change

RPP21 isoform 4 (UniProt Q9H633)
inactive: [1] 0.016 | [2] 0.108 | [3] -0.001 | [4] 0.056 | [5] -0.01

RPS7 (UniProt P62081)
inactive: [1] 0.003 | [2] -0.012 | [3] -0.009 | [4] 0.007 | [5] 0.071

RPS6 (UniProt P62753)
inactive: [1] -0.002 | [2] 0.044 | [3] 0.041 | [4] -0.01 | [5] -0.047

RRP9 (UniProt O43818)
inactive: [1] -0.009 | [2] 0.02 | [3] -0.042 | [4] 0.039 | [5] -0.024

RREB1 isoform 2 (UniProt Q92766)
inactive: [1] 0.008 | [2] 0.05 | [3] 0.084 | [4] 0.043 | [5] 0.058

RPS21 (UniProt P63220)
inactive: [1] -0.002 | [2] 0.009 | [3] 0.001 | [4] -0.034 | [5] -0.035

RPL7L1 (UniProt Q6DKI1)
inactive: [1] 0.001 | [2] 0.044 | [3] 0 | [4] 0.047 | [5] 0.017

RTN4IP1 (UniProt Q8WWV3)
inactive: [1] 0.028 | [2] -0.005 | [3] 0.027 | [4] -0.119 | [5] 0.076
